Three compounds from PubChem BioAssay AID290 (DTP/NCI, 2004) can be followed below.

The list shows only some results of the screen, not a fair sample: it covers a few groups of compounds. Not every dose and run of a compound is shown. T/C gives the treated animals as a percentage of the vehicle group. Schedule codes are those of the source, read here as Q, the interval in days (D) or hours (H), X, the number of doses. Some T/C values are followed by the survivors on the day toxicity was checked; without a count or a note in brackets, all were alive then. Some doses have a count of surviving animals in place of a T/C: the source holds a T/C of zero for them, seemingly a mark for toxic or unscored doses. Counts of survivors are from the toxicity check, whose day is not always given; animals may have died later.

In this assay the test system is mice, P1798 lymphosarcoma sc, survival or tumor weight T/C. As to the kind of experiment: NCI In Vivo Anticancer Drug Screen. Data for tumor model P1798 Lymphosarcoma (subcutaneous) in unknown mice. To be noted: T/C endpoint: mean tumor weight, schedule: Q01DX010 (ip), higher T/C = larger tumour. As for the experimental part:
The antitumor activity of compounds was measured in mice bearing transplantable tumors. Survival or tumor size were measured and the results are expressed as the measurement made in the treated group (T) divided by the measurement made in the vehicle treated control group (C). The tumor model used in this assay is P1798 Lymphosarcoma (subcutaneous) in unknown mice

Turning to `Cc1[nH]c(=O)[nH]c(=O)c1N(CCCl)CCCl`, the T/C was 81 % of control (dose: 0.5 mg/kg/injection, vehicle: saline, evaluated on day 12); 107 % of control (dose: 1.0 mg/kg/injection, vehicle: saline, evaluated on day 12); 91 % of control (dose: 2.0 mg/kg/injection, vehicle: saline, evaluated on day 12); 6 % of control (dose: 4.0 mg/kg/injection, vehicle: saline, evaluated on day 12).

As for `CN(N=O)C(=N)N[N+](=O)[O-]`, the T/C by setting is: (dose: 9.4 mg/kg/injection, vehicle: none, evaluated on day 14) 97 % of control [9 of 10 alive]; (dose: 18.75 mg/kg/injection, vehicle: none, evaluated on day 14) 60 % of control [8 of 10 alive]. The survivor count by setting is: (dose: 37.5 mg/kg/injection, vehicle: none) 0 of 10; (dose: 75.0 mg/kg/injection, vehicle: none) 0 of 10.

With `OC(CNCCCl)C(O)C(O)C(O)CNCCCl` (configuration not stated), the T/C is, setting by setting: (dose: 3.1 mg/kg/injection, vehicle: saline, evaluated on day 14) 58 % of control; (dose: 6.3 mg/kg/injection, vehicle: saline, evaluated on day 14) 57 % of control; (dose: 12.5 mg/kg/injection, vehicle: saline, evaluated on day 14) 62 % of control; (dose: 25.0 mg/kg/injection, vehicle: saline, evaluated on day 14) 28 % of control [9 of 10 alive].
